Source: the supplement of paper PMC4604168 (melanoma cell lines)
The other results are listed elsewhere or left out. Many values rest on one well or one pass, so single values are uncertain.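 Imaging used 1,536-well plates; nuclei positive for cleaved PARP by antibody were divided by total DNA-stained nuclei to yield the apoptosis fraction. Doses for screening kept most cells viable, and cell lines differ markedly in resting and induced cleaved-PARP levels.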

What follows are molecules tested on WM115 (assay: cleaved PARP positive nuclei fraction relative to DMSO control; melanoma cells; higher = more apoptosis). Settings: library dose: low library concentration; 72 h.

Point of comparison: `Nc1ccn([C@@H]2O[C@H](CO)[C@@H](O)C2(F)F)c(=O)n1` [gemcitabine] + OCCn1cc(-c2cnc3nnn(Cc4ccc5ncccc5c4)c3n2)cn1 [PF04217903] (first compound 0.0004 µM, partner dose 1 µM), “cleaved PARP positive nuclei fraction” value 151%. Against it:
- O=C(O)[C@@H]1[O][Sb](=[O])([O][Sb]2(=[O])[O][C@H]([C@H](O)CO)[C@H](O)[C@H](C(=O)O)[O]2)[O][C@H]([C@H](O)CO)[C@@H]1O (stereo not given in full) [stibogluconate] + OCCn1cc(-c2cnc3nnn(Cc4ccc5ncccc5c4)c3n2)cn1 [PF04217903] (first compound 2 µM, partner dose 1 µM) — higher, 196%
- C[C@@H](Oc1cc(-c2cnn(C3CCNCC3)c2)cnc1N)c1c(Cl)ccc(F)c1Cl [Crizotinib] + Oc1cc(-c2nc(-c3ccccc3)[nH]c2-c2ccncc2)ccc1Cl [L779450] (first compound 0.2 µM, partner dose 0.2 µM) — higher, 270%
- C[C@@H](Oc1cc(-c2cnn(C3CCNCC3)c2)cnc1N)c1c(Cl)ccc(F)c1Cl [Crizotinib] + CCCCCCCCCCCC1=C(O)C(=O)C=C(O)C1=O [Embelin] (first compound 0.2 µM, partner dose 1.2 µM) — higher, 216%
- Nc1ncn([C@H]2C[C@H](O)[C@@H](CO)O2)c(=O)n1 [decitabine] + O=C(Nc1ccccc1)c1cc([N+](=O)[O-])ccc1Cl [GW9662] (first compound 0.1 µM, partner dose 2 µM) — lower, 136%
- C[C@@H](Oc1cc(-c2cnn(C3CCNCC3)c2)cnc1N)c1c(Cl)ccc(F)c1Cl [Crizotinib] + O=c1cc(-c2cccc3c2Sc2ccccc2S3)oc(N2CCOCC2)c1 [KU55933] (first compound 0.2 µM, partner dose 1 µM) — higher, 210%
- CS(=O)(=O)CCNCc1ccc(-c2ccc3ncnc(Nc4ccc(OCc5cccc(F)c5)c(Cl)c4)c3c2)o1 [lapatinib] + OCCn1cc(-c2cnc3nnn(Cc4ccc5ncccc5c4)c3n2)cn1 [PF04217903] (first compound 0.8 µM, partner dose 1 µM) — higher, 189%
- Cc1cc(Nc2cc(N3CCN(C)CC3)nc(/C=C/c3ccccc3)n2)n[nH]1 + N#Cc1c(O)c2c(-c3ccc(-c4ccccc4O)cc3)csc2[nH]c1=O [A769662] (first compound 0.04 µM, partner dose 2 µM) — lower, 57.1%
- CCCS(=O)(=O)Nc1ccc(F)c(C(=O)c2c[nH]c3ncc(Cl)cc23)c1F + COc1cc2ncnc(Nc3ccc(Oc4ccccc4)cc3)c2cc1OC [SrcI1] (first compound 0.08 µM, partner dose 2 µM) — lower, 48.6%
- Nc1nc(F)nc2c1ncn2[C@@H]1O[C@H](CO)[C@@H](O)[C@@H]1O [fludarabine] + CO[C@@H]1[C@H](N(C)C(=O)c2ccccc2)C[C@H]2O[C@]1(C)n1c3ccccc3c3c4c(c5c6ccccc6n2c5c31)C(=O)NC4 [Midostaurin] (first compound 0.2 µM, partner dose 0.08 µM) — lower, 28.4%
- Nc1ncn([C@H]2C[C@H](O)[C@@H](CO)O2)c(=O)n1 [decitabine] + O=C(O)c1ccc(-c2c[nH]c3ncc(-c4ccccc4)cc23)cc1C1CCCC1 [GSK650394] (first compound 0.1 µM, partner dose 0.16 µM) — lower, 58.5%
- CN1CCN(c2ccc3nc(-c4c(N)c5c(F)cccc5[nH]c4=O)[nH]c3c2)CC1 [Dovitinib] + Oc1cc(-c2nc(-c3ccccc3)[nH]c2-c2ccncc2)ccc1Cl [L779450] (first compound 0.1 µM, partner dose 0.2 µM) — lower, 127%
- CS(=O)(=O)CCNCc1ccc(-c2ccc3ncnc(Nc4ccc(OCc5cccc(F)c5)c(Cl)c4)c3c2)o1 [lapatinib] + O=S(=O)(c1ccccc1)N(CC(F)(F)F)c1ccc(C(O)(C(F)(F)F)C(F)(F)F)cc1 [T0901317] (first compound 0.8 µM, partner dose 1.4 µM) — lower, 31.4%
- CNC(=O)c1cc(Oc2ccc(NC(=O)Nc3ccc(Cl)c(C(F)(F)F)c3)cc2)ccn1 [sorafenib] + O=C(O)c1ccc(-c2c[nH]c3ncc(-c4ccccc4)cc23)cc1C1CCCC1 [GSK650394] (first compound 0.4 µM, partner dose 0.16 µM) — lower, 38.5%
- CC(C)C[C@H](NC(=O)[C@H](Cc1ccccc1)NC(=O)c1cnccn1)B(O)O [Bortezomib] + NC(=O)Nc1cc(-c2cccc(F)c2)sc1C(=O)N[C@H]1CCCNC1 [AZD7762] (first compound 0.001 µM, partner dose 0.02 µM) — lower, 102%
- Nc1nc(F)nc2c1ncn2[C@@H]1O[C@H](CO)[C@@H](O)[C@@H]1O [fludarabine] + NCC(=O)Nc1ccc(-n2nc(C(F)(F)F)cc2-c2ccc3c(ccc4ccccc43)c2)cc1 [OSU03012] (first compound 0.2 µM, partner dose 1 µM) — higher, 217%
- CC(C)C[C@H](NC(=O)[C@H](Cc1ccccc1)NC(=O)c1cnccn1)B(O)O [Bortezomib] + COc1cc2c(Oc3ccc4[nH]c(C)cc4c3F)ncnc2cc1OCCCN1CCCC1 [cediranib] (first compound 0.001 µM, partner dose 0.4 µM) — lower, 122%
- CC(C)C[C@H](NC(=O)[C@H](Cc1ccccc1)NC(=O)c1cnccn1)B(O)O [Bortezomib] + C[C@@H]1CCN(C(=O)CC#N)C[C@@H]1N(C)c1ncnc2[nH]ccc12 [CP690550] (first compound 0.001 µM, partner dose 1 µM) — lower, 51.1%
- Nc1ccn([C@@H]2O[C@H](CO)[C@@H](O)C2(F)F)c(=O)n1 [gemcitabine] + C=CCn1c(=O)c2cnc(Nc3ccc(N4CCN(C)CC4)cc3)nc2n1-c1cccc(C(C)(C)O)n1 [MK1775] (first compound 0.0004 µM, partner dose 0.02 µM) — lower, 120%
- CNC(=O)c1cc(Oc2ccc(NC(=O)Nc3ccc(Cl)c(C(F)(F)F)c3)cc2)ccn1 [sorafenib] + COc1cc2c(Oc3ccc4[nH]c(C)cc4c3F)ncnc2cc1OCCCN1CCCC1 [cediranib] (first compound 0.4 µM, partner dose 0.4 µM) — lower, 101%
- CNC(=O)c1cc(Oc2ccc(NC(=O)Nc3ccc(Cl)c(C(F)(F)F)c3)cc2)ccn1 [sorafenib] + Cc1ccc(NC(=O)c2cccc(N(C)C)c2)cc1NC(=O)c1ccc(O)cc1 [ZM336372] (first compound 0.4 µM, partner dose 2 µM) — lower, 18.6%
- C[C@@H](Oc1cc(-c2cnn(C3CCNCC3)c2)cnc1N)c1c(Cl)ccc(F)c1Cl [Crizotinib] + CCN(CC)CCCCNc1ncc2cc(-c3cc(OC)cc(OC)c3)c(NC(=O)NC(C)(C)C)nc2n1 [PD173074] (first compound 0.2 µM, partner dose 0.1 µM) — lower, 102%
- Nc1ncn([C@H]2C[C@H](O)[C@@H](CO)O2)c(=O)n1 [decitabine] + O=c1cc(-c2cccc3c2Sc2ccccc2S3)oc(N2CCOCC2)c1 [KU55933] (first compound 0.1 µM, partner dose 1 µM) — lower, 135%
- O=C(O)c1ccc2c(c1)nc(Nc1cccc(Cl)c1)c1ccncc12 + O=C(O)c1ccc(-c2c[nH]c3ncc(-c4ccccc4)cc23)cc1C1CCCC1 [GSK650394] (first compound 0.4 µM, partner dose 0.16 µM) — lower, 53.7%
- Cc1cc(Nc2cc(N3CCN(C)CC3)nc(/C=C/c3ccccc3)n2)n[nH]1 + C=CCn1c(=O)c2cnc(Nc3ccc(N4CCN(C)CC4)cc3)nc2n1-c1cccc(C(C)(C)O)n1 [MK1775] (first compound 0.04 µM, partner dose 0.02 µM) — lower, 61.6%
- Nc1ccn([C@@H]2O[C@H](CO)[C@@H](O)C2(F)F)c(=O)n1 [gemcitabine] + O=C(Nc1cccc(Cl)c1)Nc1ncc(CCNc2ncnc3ccsc23)s1 [SNS314] (first compound 0.0004 µM, partner dose 0.0008 µM) — higher, 188%
- C[C@@H](Oc1cc(-c2cnn(C3CCNCC3)c2)cnc1N)c1c(Cl)ccc(F)c1Cl [Crizotinib] + CO[C@@H]1[C@H](N(C)C(=O)c2ccccc2)C[C@H]2O[C@]1(C)n1c3ccccc3c3c4c(c5c6ccccc6n2c5c31)C(=O)NC4 [Midostaurin] (first compound 0.2 µM, partner dose 0.08 µM) — lower, 116%
- CC(C)C[C@H](NC(=O)[C@H](Cc1ccccc1)NC(=O)c1cnccn1)B(O)O [Bortezomib] + COc1ccc2c(c1)CCC1C2CCC2(C)C(NCCCCCCN3C(=O)C=CC3=O)CCC12 [U73122] (first compound 0.001 µM, partner dose 0.4 µM) — lower, 64.3%
- CNC(=O)c1cc(Oc2ccc(NC(=O)Nc3ccc(Cl)c(C(F)(F)F)c3)cc2)ccn1 [sorafenib] + CO[C@@H]1[C@H](N(C)C(=O)c2ccccc2)C[C@H]2O[C@]1(C)n1c3ccccc3c3c4c(c5c6ccccc6n2c5c31)C(=O)NC4 [Midostaurin] (first compound 0.4 µM, partner dose 0.08 µM) — lower, 115%
- O=C(O)[C@@H]1[O][Sb](=[O])([O][Sb]2(=[O])[O][C@H]([C@H](O)CO)[C@H](O)[C@H](C(=O)O)[O]2)[O][C@H]([C@H](O)CO)[C@@H]1O (stereo not given in full) [stibogluconate] + Cc1ccc(NC(=O)c2cccc(N(C)C)c2)cc1NC(=O)c1ccc(O)cc1 [ZM336372] (first compound 2 µM, partner dose 2 µM) — higher, 158%
